Experimental data from PubChem BioAssay AID493014 (National Center for Advancing Translational Sciences (NCATS), 2011).
This is one part of the list. The main result of the screen is listed elsewhere. These columns were measured beside it and carry no call. Compounds called inactive in the main read-out are mostly missing here. The note in brackets gives the kind of curve behind each potency; many fits are weak.

Test: qHTS Assay to Find Inhibitors of Chronic Active B-Cell Receptor Signaling
Conditions: ABC-DLBCL IkBa-CBG/CBR reporter, luminescence ratio (green luciferase fused to IkBa over red control in TMD8 lymphoma cells), 4 h
How it was run: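 Doxycycline induced both beetle luciferases in TMD8 lymphoma cells; IKK-driven degradation limits the IkappaBalpha-fused green signal, while red luminescence normalises for cell number and nonspecific effects. Compounds tested up to 46 uM, 4 hrs.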

[1] = measured here: CBR red luminescence, cell number
[2] = measured here: IkBa-CBG green luminescence

SMILES	AC50 [1]	AC50 [2]
COc1ccc(C2=Nn3c(nnc3-c3ccco3)SC2)cc1OC	1.12 µM [rising, full curve, poor fit]	–
CN(C)/C=C1/NC(=S)NC1=O	0.794 µM [falling, partial curve, poor fit]	–
Cc1ccc(NC(=O)C2=CC(c3cccs3)=NS(=O)(=O)N2C)cc1	0.355 µM [rising, full curve, poor fit]	–
C=CCSc1nc(C)cc(C(=O)OCC)c1C#N	11.2 µM [rising, partial curve]	–
Cc1ccc(Nc2nc(-c3ccc(S(=O)(=O)N4CCOCC4)cc3)cs2)cc1Cl	0.13 µM [rising, full curve, poor fit]	–
COc1ccc(OCCC(=O)OCC(=O)NC(=O)NC2CCCCC2)cc1	8.91 µM [falling, partial curve]	–
O=[N+]([O-])c1cc(Cl)cc(/C=N/Nc2nc3ccccc3s2)c1O	0.398 µM [falling, full curve]	–
COc1ccc(CNC(=O)Nc2ccc(C)cc2)cc1	2.06 µM [falling, partial curve, poor fit]	–
CCCc1c(O)nc(SCCN(CC)CC)[nH]c1=O	9.2 µM [falling, partial curve, poor fit]	–
COc1cccc(NC(=O)CN(C)C(=O)c2c(C)nn(-c3ccccc3)c2Cl)c1	–	23.1 µM [falling, partial curve, poor fit]
O=C(Nc1ncc2c(n1)-c1ccccc1OC2)c1ccc(Cl)cc1	0.316 µM [falling, full curve, poor fit]	–
Nc1nc2nc(-c3ccc(Cl)cc3)cc(C(F)(F)F)n2n1	2.59 µM [rising, single point]	–
O=C(/C=C/c1ccc(Cl)cc1)N1CCN(Cc2ccccc2)CC1	8.91 µM [falling, partial curve]	–
O=C(Nc1cc(Cl)c(Cl)cc1Cl)c1cccnc1	10 µM [rising, partial curve, poor fit]	–
COc1cc(C2Nc3ccccc3C(=O)N2c2ccccc2)c(Br)cc1OCC(=O)O (stereo unspecified)	18.4 µM [rising, single point]	6.51 µM [falling, partial curve, poor fit]
COc1ccc2cc(-c3ccccc3F)ncc2c1	–	0.13 µM [rising, full curve, poor fit]
COc1ccc(/C=C/C(=O)N2CCC(C(N)=O)CC2)cc1S(=O)(=O)N1CCOCC1	3.98 µM [rising, partial curve, poor fit]	–
CCOC(=O)c1c(C)[nH]c(C(=O)COC(=O)c2cccnc2Cl)c1C	0.291 µM [rising, full curve, poor fit]	–
CCn1nc(C)c(NC(=O)/C=C/c2ccc(OC)c(COc3ccc(Cl)cc3Br)c2)c1C	0.0259 µM [rising, full curve, poor fit]	–
CCCCOc1ccc(-c2ncc(N)cn2)cc1	0.891 µM [rising, partial curve, poor fit]	–

Full records, quoted from the list.
`COc1cc(C2Nc3ccccc3C(=O)N2c2ccccc2)c(Br)cc1OCC(=O)O` (stereo unspecified) as listed: AC50 [1]: 18.4 µM [rising, single point]; AC50 [2]: 6.51 µM [falling, partial curve, poor fit]
`CCCc1c(O)nc(SCCN(CC)CC)[nH]c1=O` as listed: AC50 [1]: 9.2 µM [falling, partial curve, poor fit]

The list goes on:

SMILES	AC50 [1]	AC50 [2]
CCn1cc(CNC(=O)c2cc([N+](=O)[O-])c(C)c([N+](=O)[O-])c2)cn1	6.51 µM [rising, partial curve, poor fit]	–
O=C(COc1ccccc1[N+](=O)[O-])Nc1cccc(Cl)c1N1CCOCC1	25.1 µM [falling, partial curve, poor fit]	–
Cc1nnc(NC(=O)c2cc(-c3ccncc3)nc3c(C)cccc23)s1	0.447 µM [rising, full curve, poor fit]	–
CCc1cc2c(=O)c(-c3cnn(-c4ccccc4)c3)c(C(F)(F)F)oc2c(CN(C)C)c1O	1.64 µM [rising, partial curve, poor fit]	–
Cc1ccc2nc(NC(=O)c3ccc4ncsc4c3)sc2c1	18.4 µM [falling, single point]	–
O=C(N/N=C/c1ccc2cccc(OCc3ccccc3)c2n1)c1ccc(Cl)cc1	3.55 µM [falling, full curve, poor fit]	–
Cc1ccc(C)c(OCCCC(=O)Nc2ccc(N3CCOCC3)cc2)c1	6.51 µM [rising, partial curve, poor fit]	–
Cc1nc(N)sc1C(=O)N/N=C/c1ccc([N+](=O)[O-])cc1	0.398 µM [falling, full curve]	–
COc1ccccc1OCC(O)Cn1c(=N)n(Cc2ccccc2)c2ccccc21 (stereo unspecified)	2.06 µM [falling, full curve]	–
CC(C)(C)OC(=O)N1CCC(CC2CC(c3ccc(Cl)cc3)=NO2)(C(=O)NCC2CCCCC2)CC1 (stereo unspecified)	4.47 µM [falling, single point]	–
N#CCC(=O)Nc1ccc(C(=O)Nc2cccc(S(N)(=O)=O)c2)cc1	35.5 µM [falling, single point]	–
O=C1NC(=S)N/C1=C\c1ccc(N2CCOCC2)cc1	25.1 µM [rising, partial curve, poor fit]	–
Cc1ccc2nc(C3CCCN(C(=S)Nc4ccccc4C)C3)[nH]c2c1 (stereo unspecified)	6.31 µM [falling, partial curve]	–
COc1ccc(C(=O)COC(=O)C(O)c2ccccc2)c(OC)c1 (stereo unspecified)	1.84 µM [rising, full curve, poor fit]	–
COc1ccc(-n2nnc3c(=O)n(CC(=O)N4CCC(C)CC4)cnc32)cc1	7.31 µM [rising, partial curve, poor fit]	–
CCOC(=O)c1ccc(-n2c(-c3ccco3)nc3ccccc3c2=O)cc1	35.5 µM [rising, single point]	–
C=CCC1(N(C(C)=O)c2ccccc2C)CCCCC1	35.5 µM [falling, single point]	–
O=Nc1c2cc(-c3ccccc3)[nH]nc-2c2ccccc12	1.26 µM [falling, partial curve, poor fit]	–
CCN(CC(N)=O)S(=O)(=O)c1ccc(Br)cc1	7.31 µM [rising, partial curve, poor fit]	–
COC(=O)c1ccc(C(=O)OC)c(-n2c(=O)c3ccccc3c3ccccc3c2=O)c1	4.11 µM [falling, partial curve, poor fit]	–
